Measured values taken from PubChem BioAssay AID1259415 (National Center for Advancing Translational Sciences (NCATS), 2018).
Screen size: about 410,000 compounds; about 18,000 (4.4%) were called active. Inconclusive means that the source gave no clear call. Such entries were picked first, then a sample of the others. Rule as the data show it: active = activity change below about -60%; inconclusive = no clear call, values can overlap the other calls; inactive = above about -39%.
% is scaled to controls: 0 for no effect and ±100 for the full control effect.

Assay: qHTS Assay for inhibitors of the human cytomegalovirus (HCMV)
Conditions: HFF cells, HCMV-luciferase reporter, 72 h; at 57.5 µM; hits give low values
Procedure, shortened: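 Compounds were evaluated in HFFs infected with an HCMV luciferase reporter virus (MOI 1 PFU/cell). Luciferase in lysates collected 72 h post infection served as the replication measure.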
In the case of `COc1ccc(C2CC(=O)C(c3cccc(C)c3)=CN2Cc2ccccc2)cc1` (stereo not drawn), the activity change, negative = inhibition is reported as inconclusive: -46.2%.
With `Cc1cc(NC(=O)CSc2nc(-c3ccccc3Cl)nc3c2c(=O)n(C)c(=O)n3C)no1` the activity change, negative = inhibition was inconclusive: -40.1%.
In the case of `O=C(N/N=C\c1c(O)ccc2ccccc12)c1ccc(Cn2cccn2)o1`, the activity change, negative = inhibition is reported as active: -99.3%.
For `O=C(Nc1ccc(Cl)cc1)C1CCCN(c2ncnc3c2nc2n3CCCCC2)C1` (stereo not drawn), the activity change, negative = inhibition was inconclusive: -51.1%.
With `CCOc1ccc(N2C(=O)S/C(=C\c3ccc(O)c(OCC)c3)C2=O)cc1` the activity change, negative = inhibition was inconclusive: -47.6%.
In the case of `Nc1nonc1-c1nc2ccccc2n1CC(=O)NC1CCCC1`, the activity change, negative = inhibition is reported as inactive: -20.9%.
With `CCCn1c(CCc2ccccc2)n[nH]c1=S` the activity change, negative = inhibition was inconclusive: -43.2%.
With `O=[N+]([O-])c1ccc2nc(N3CCCC3)sc2c1` the activity change, negative = inhibition was inactive: 62.2%.
In the case of `COC(=O)c1ccc(COc2c(F)c(F)cc(F)c2F)o1`, the activity change, negative = inhibition is reported as inconclusive: -48.1%.
With `O=C(NCCCn1ccnc1)c1cc(C(=O)C2CCCCC2)c[nH]1` the activity change, negative = inhibition was inconclusive: -54.8%.
For `CN(CC(=O)Nc1ccc(F)c(F)c1F)C(=O)c1nn(Cc2ccccc2)c(=O)c2ccccc12`, the activity change, negative = inhibition was inactive: 0%.
With `COc1ccc2c(c1)c1c(n2C(C)=O)C(OC(C)=O)=NCC1` the activity change, negative = inhibition was inconclusive: -42.9%.
For `COc1cccc(NC(=O)c2cccc(NC(=O)c3ccco3)c2)c1`, the activity change, negative = inhibition was inconclusive: -48.8%.
In the case of `Cc1ccc(C(=O)N2CCC3(CC2)Oc2ccc(F)cc2C(=O)C32CC(c3cccnc3)=NO2)s1` (stereo not drawn), the activity change, negative = inhibition is reported as inactive: -4.2%.
In the case of `Cc1ccc(CNC(=O)CCc2c(C)nc3c(c(C)nn3-c3ccccc3)c2C)cc1`, the activity change, negative = inhibition is reported as inconclusive: -51.9%.
In the case of `Cc1ccccc1N1C(=O)C(Oc2ccc(Cl)cc2)C1CNCC1CCCO1` (stereo not drawn), the activity change, negative = inhibition is reported as inconclusive: -48.4%.
In the case of `FC(F)Oc1ccc(NC(=S)NC2CCSc3ccccc32)cc1` (stereo not drawn), the activity change, negative = inhibition is reported as active: -82.3%.
With `CCOC(=O)C(O)(c1ccc(N=Cc2ccccc2O)c(C)c1)C(F)(F)F` (stereo not drawn) the activity change, negative = inhibition was inconclusive: -41.5%.
With `CCCN1C(=O)/C(=C/c2ccc(OCC(=O)OCC)cc2)NC1=S` the activity change, negative = inhibition was inactive: 11.4%.
In the case of `CCc1cc2c(N3CCN(c4ccccc4)CC3)ncnc2s1`, the activity change, negative = inhibition is reported as active: -70%.
For `CCCCn1c(=O)[nH]c(=O)c2c1nc(-c1cc3c(cc1Br)OCO3)n2C`, the activity change, negative = inhibition was inconclusive: -42.9%.
For `c1ccc(-c2nccc(-c3ccc(-n4cnc5ccccc54)cc3)n2)nc1`, the activity change, negative = inhibition was inconclusive: -41.4%.
In the case of `CC1CCCCC1NC(=O)/C(C#N)=C/c1ccccc1F` (stereo not drawn), the activity change, negative = inhibition is reported as inconclusive: -47.7%.
For `CCN(CC)S(=O)(=O)c1ccc(NC(=O)c2ccc(OCC3CCCO3)cc2)cc1` (stereo not drawn), the activity change, negative = inhibition was active: -89.9%.
In the case of `COc1ccc(-c2csc(NC(=O)c3cc(-c4cccs4)nc4ccccc34)n2)c(OC)c1`, the activity change, negative = inhibition is reported as inactive: -7.85%.
In the case of `O=C(Nc1ccc2c(c1)OCCO2)c1cc(-c2ccccn2)nc2ccc(Br)cc12`, the activity change, negative = inhibition is reported as active: -93.8%.
For `CC1CCCCN1C(=O)CSc1nnc(-c2ccccc2F)o1` (stereo not drawn), the activity change, negative = inhibition was inactive: 28.3%.
In the case of `CCOC(=O)N1CCN(S(=O)(=O)N2CCCC(C(=O)NCc3ccccc3OCC)C2)CC1` (stereo not drawn), the activity change, negative = inhibition is reported as inactive: 3.77%.
In the case of `CCCc1cc(=O)n2nc(N3CCC(C(=O)N4CCN(c5ccc(OC)cc5)CC4)CC3)sc2n1`, the activity change, negative = inhibition is reported as active: -86.8%.
For `COc1ccc(-c2cc(NC=O)c3ncc(-c4cc(OC)c(OC)c(OC)c4)n3c2)cc1`, the activity change, negative = inhibition was active: -80.7%.
In the case of `CCN(CC)c1ccc(NC(=O)C2=CCN(S(=O)(=O)c3ccc(F)cc3)CC2)c(C)c1`, the activity change, negative = inhibition is reported as inconclusive: -48.4%.
For `CCC/C(=N\NC(=O)C1CC1)c1ccccc1`, the activity change, negative = inhibition was inactive: -12.6%.
In the case of `Cc1[nH]c2ccccc2c1C(=O)c1c(N)[nH]c(C(=O)c2ccccc2)c1-c1ccc(Cl)cc1`, the activity change, negative = inhibition is reported as inactive: 6.17%.
In the case of `Cc1cccc(S(=O)(=O)N2CCN(Cc3ccc4c(c3)OCO4)CC2)c1`, the activity change, negative = inhibition is reported as inactive: -26.2%.
For `COc1ccc(OC)c(CN(CC(F)(F)F)S(=O)(=O)c2ccccc2Br)c1`, the activity change, negative = inhibition was inactive: -29.6%.
With `COc1ccc(Cl)cc1N(CC(=O)Nc1ccccc1C(=O)N1CCOCC1)S(C)(=O)=O` the activity change, negative = inhibition was inconclusive: -54.5%.
For `Cc1ccc(C(C)(C)C)cc1S(=O)(=O)N1CCC(C(=O)N2CCN(c3ccc(O)cc3)CC2)CC1`, the activity change, negative = inhibition was inconclusive: -51.4%.
In the case of `Cc1cccc(CN2CCC(C(=O)Nc3cccc(-c4cscn4)c3)CC2)n1`, the activity change, negative = inhibition is reported as inconclusive: 0%.
With `CCN(CC)CCNC(=O)c1ccc(NC(=O)COc2ccccc2F)cc1` the activity change, negative = inhibition was inconclusive: -43.4%.
In the case of `CC(c1ccncn1)N(C)Cc1nc(-c2ccc(C(F)(F)F)cc2)no1` (stereo not drawn), the activity change, negative = inhibition is reported as inconclusive: -40.5%.
For `COc1cccc(NC(=O)Nc2ccc(C(C)(C)C)cc2)c1`, the activity change, negative = inhibition was inactive: -24.3%.
With `COc1cc(/C=C2/C(=O)N(C)C(=S)N2C)ccc1OCc1cccc(F)c1` the activity change, negative = inhibition was active: -67.6%.
With `Nc1ccc(N(c2ccccc2)c2ccc(N)cc2)cc1` the activity change, negative = inhibition was inconclusive: -43.3%.
